# In PMC7934584:
# Amino acid sequences for entries named in this document (tags omitted).
# UniProt P42568: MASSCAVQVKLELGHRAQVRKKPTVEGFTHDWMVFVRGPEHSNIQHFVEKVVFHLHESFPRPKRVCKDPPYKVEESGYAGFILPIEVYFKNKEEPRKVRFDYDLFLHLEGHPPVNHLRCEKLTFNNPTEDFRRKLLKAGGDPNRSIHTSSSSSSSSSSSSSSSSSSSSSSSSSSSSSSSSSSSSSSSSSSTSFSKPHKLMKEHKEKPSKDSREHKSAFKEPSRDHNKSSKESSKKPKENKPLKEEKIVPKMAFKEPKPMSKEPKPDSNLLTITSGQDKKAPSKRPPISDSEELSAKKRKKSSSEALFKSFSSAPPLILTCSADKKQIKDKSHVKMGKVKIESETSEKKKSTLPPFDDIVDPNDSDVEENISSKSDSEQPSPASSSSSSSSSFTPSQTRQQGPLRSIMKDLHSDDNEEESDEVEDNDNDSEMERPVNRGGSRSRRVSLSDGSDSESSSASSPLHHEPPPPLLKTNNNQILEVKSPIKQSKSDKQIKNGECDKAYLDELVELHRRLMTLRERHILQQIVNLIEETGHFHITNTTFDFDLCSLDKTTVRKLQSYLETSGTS
# UniProt O95863: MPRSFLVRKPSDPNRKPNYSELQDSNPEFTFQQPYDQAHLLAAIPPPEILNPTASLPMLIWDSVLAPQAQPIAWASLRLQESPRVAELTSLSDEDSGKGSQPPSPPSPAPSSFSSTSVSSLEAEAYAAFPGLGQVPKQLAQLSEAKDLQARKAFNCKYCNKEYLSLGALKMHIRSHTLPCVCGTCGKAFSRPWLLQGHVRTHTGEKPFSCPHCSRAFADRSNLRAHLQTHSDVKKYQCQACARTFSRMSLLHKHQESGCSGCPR
# Molecular target: FLAG-AF9 (human (cDNA from HEK293T cells)) (UniProt P42568)
# Experiment: affinity purification with mass spectrometry; FLAG antibody beads incubated with FLAG-AF9 cell lysate (MDA-MB-231) for 4 h; SDS-PAGE, trypsin digestion, LC-MS/MS; compared with FLAG control
substance,measurement,value
Snail (from UniProt O95863 1-264),binding,binds

# No constants are given. Whether binding was seen depends on the method and setting. Binding seen in cells or lysates may run through a third protein. Here binding means that the protein was enriched with, or labelled near, the bait; the list need not be complete.
